# In patent US20030166287A1:
# Protein sequences, listed by entry. Tags and fused reporters are not part of them.
# UniProt P30825: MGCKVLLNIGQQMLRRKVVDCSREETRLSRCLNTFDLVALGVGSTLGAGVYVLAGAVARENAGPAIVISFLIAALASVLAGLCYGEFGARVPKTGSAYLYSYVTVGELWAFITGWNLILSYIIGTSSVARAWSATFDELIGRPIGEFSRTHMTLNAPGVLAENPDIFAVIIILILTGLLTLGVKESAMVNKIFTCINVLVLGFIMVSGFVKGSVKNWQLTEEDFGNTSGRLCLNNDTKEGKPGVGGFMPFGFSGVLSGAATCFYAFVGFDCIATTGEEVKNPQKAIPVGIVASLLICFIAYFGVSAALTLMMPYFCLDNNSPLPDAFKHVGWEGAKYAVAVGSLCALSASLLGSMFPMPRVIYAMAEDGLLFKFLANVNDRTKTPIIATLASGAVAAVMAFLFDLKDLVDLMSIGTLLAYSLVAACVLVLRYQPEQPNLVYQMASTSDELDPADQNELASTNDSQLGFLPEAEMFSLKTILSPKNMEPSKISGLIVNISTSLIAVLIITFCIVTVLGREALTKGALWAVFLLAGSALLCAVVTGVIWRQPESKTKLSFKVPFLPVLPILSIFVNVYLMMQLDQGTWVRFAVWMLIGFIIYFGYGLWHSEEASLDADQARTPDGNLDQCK
# Results are given in words; binding and its absence hold for the method and conditions named. Some results given as binding are weak or reduced against the parent protein; the word gives no strength.
# Assays:
# [1] = molecular target: human cationic amino acid transporter-1 (hCAT1) on 911-hCAT1-k08 cells (human) (UniProt P30825); assay: cell binding of phage, titering on E. coli
# [2] = molecular target: human cationic amino acid transporter-1 (hCAT1) on 911-hCAT1-k08 cells (human) (UniProt P30825); assay: flow cytometry, 10^11 phage on 911-pcDNA3 and 911-hCAT1(k08) cells
substance,measurement,setting,value
cloned … (SEQ ID NO: 1) displaying m13 phage (from UniProt P69168 19-424) (peptide),binding,[1],binds
same,binding,[2],binds
